Measured values: PMC12042775
These are yes or no findings as the source states them, for the method shown. In cells and extracts the contact can be indirect. Some entries that bind do so weakly or less than the wild type.

Molecular target: integrin β1 (human (endogenous in PC3)), P05556
Assay: co-IP; lysate of PC3-derived sEVs in lysis buffer with 0.5% Nonidet P40 substitute; anti-integrin β1 cross-linked (BS3) to Protein G Dynabeads, overnight; blotted with anti-integrin α6, α3 or CD151; sEVs before and after treatment with MβCD (cholesterol depletion)
Conditions: remark: other sources report otherwise

- binding: binds
B1: CD151, P48509 1-253 (protein)
chain: MGEFNEKKTTCGTVCLKYLLFTYNCCFWLAGLAVMAVGIWTLALKSDYISLLASGTYLATAYILVVAGTVVMVTGVLGCCATFKERRNLLRLYFILLLIIFLLEIIAGILAYAYYQQLNTELKENLKDTMTKRYHQPGHEAVTSAVDQLQQEFHCCGSNNSQDWRDSEWIRSQEAGGRVVPDSCCKTVVALCGQRDHASNIYKVEGGCITKLETFIQEHLRVIGAVGIGIACVQVFGMIFTCCLYRSLKLEHY
